{
  "source": "patent US10709714B2",
  "about": "(CL BioSciences LLC, priority 2013, dated 2020)",
  "tested_on": "isolated G cells",
  "experiment": "Gastrin release from isolated G cells",
  "assay_type": "cell-based",
  "conditions": "nifedipine 1 μm (preincubation 10 mins), H-89 10 μM, PD98059 0.1 μM, wortmannin 1 nM",
  "note": "At least one compound was matched to its structure with a doubt left.",
  "data": [
    {"smiles": "COC(=O)C1=C(C)NC(C)=C(C(=O)OC)C1c1ccccc1[N+](=O)[O-]", "note": "[nifedipine]", "values": [
      {"measurement": "effect on CaCl2-mediated gastrin release", "result": "inhibited"}
    ]}
  ]
}
